Laboratory results as given in the supplement of paper PMC10338343.
± gives the standard deviation. The entries are a selection whose mix differs from that of the whole data set. The uncertainty is large for many entries.

Test system: MIWI (PIWIL1) piRISC loaded with Kctd7 piRNA (30 nt)
Test: pre-steady-state target cleavage rate (min^-1); MIWI and MILI are mouse PIWI proteins and EfPiwi is from a freshwater sponge; tags in brackets are library labels; higher = faster piRNA-guided slicing of the target
Conditions: guide: Kctd7 piRNA 5'p-UGUUAAUCUCUCAGAGAAGGUGACAGUGAU; auxiliary factor: 500 nM mouse GTSF1
Description: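 Cleave-'n-Seq: a library of target RNAs (target site embedded in constant flanks, ACAGCATTCCGCGTTAGTGATATCCG... 5' flank; DNA-blocked outside the site) at 0.1 nM was incubated with 1 nM active mouse MILI or MIWI piRISC (synthetic 5'-monophosphorylated piRNA guide) with or without 500 nM mouse GTSF1 at 33 °C for 1 min to 16 h. Uncleaved targets were sequenced and normalised to non-target controls, and the pooled three trials were fitted to a burst-and-steady-state model to give the pre-steady-state cleavage rate (min^-1; k3 is constrained to at most 1e-4). Sequence is the target site only; target names encode pairing extent (gX:gY) and contiguous / 1-mismatch / 2-mismatch / bulge geometry. Fits with R² ≤ 0 are excluded.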

Row | Sequence | pre-steady-state target cleavage rate
1 | UAGUGAGACACCUACUCUGAGAGAUUAACA | 0.399 ± 0.03
2 | UAGUGACAGUGCUUCUCUGAGUGAUAAACA | 0.000128 ± 0.027
3 | UAGUGAGUCACCUUCUGAGAGAGAUUUUGA | 0.00231 ± 0.0062
4 | UAGUGUGUCACCUUGUCUGAGAGAUAUUGA | 0.00143 ± 0.0066
5 | UAGUGAGUCACCUUGAGUGAGAGAUUAAGA | 0.000965 ± 0.011
6 | UAGUGACUCACCUUCUCUGAAGAUUAACA | 0.000977 ± 0.0068
7 | AUCACUGUCACCUUCUCACUGAGAUUAAGA | 0.00276 ± 0.005
8 | UAGGCUGUCACCUUCUCUGAGAGAUUAACA | 0.803 ± 0.045
9 | UAGUGACAGUGGAAGAGACUCACAUUAACA | 0.000147 ± 0.02
10 | UAGACUGUCUCCUUCUCUGAGAGAUAUUGA | 0.00267 ± 0.0037
11 | UAGUGUGUCACCUUCAGAGAGAGAUUAUGA | 0.00188 ± 0.008
12 | UAGUCUGUCAGCUUCUCUGAGAGAUAUUGA | 0.00195 ± 0.0047
13 | UAGUCUGUCACCUUCUCUGAGACUAUAUGA | 0.000794 ± 0.0075
14 | UAGUGACAGUGGAACUCUGAGAGAUUAAA | 0.000156 ± 0.06
15 | UAGUGACAGUGGAAGAGAGAGCAGAUUAACA | 0.00229 ± 0.0038
16 | UAAACUGUCACCUUCUCUGAGAGAUUAACA | 0.677 ± 0.03
17 | UACACUGUCAGGAUCUCUGAGAGAUUUUGA | 0.000687 ± 0.009
18 | UAGUCUGUCACCUUCUCUGAGUGAUUAUCA | 0.015 ± 0.0044
19 | UAGUGACUCACCUUGACUGAGAGAUAUUGA | 0.000283 ± 0.034
20 | UAGACUGUGUCCUUCUCUGAGAGAUUUUGA | 0.0012 ± 0.0071
21 | UAGUGACAGUGCUUCUCUGACUCAUUAACA | 0.000533 ± 0.013
22 | UAGUGACAGACCUUCUCUGAAGAGAUUAACA | 0.00012 ± 0.038
23 | UAGUGACAGACGUUCUCAGAGAGAUUAACA | 0.00148 ± 0.0067
24 | UACACUGUCACCUUCUCACUGAGAUUAAGA | 0.00198 ± 0.0074

Row | Sequence | pre-steady-state target cleavage rate
25 | UAGUGACACACCUUCUUCUGAGAGAUUAACA | 0.00289 ± 0.0048
26 | UAGUGACAGUGGAUCUCUGACAGAUUAUCA | 0.000181 ± 0.043
27 | UACACUGUUCACCUUCUCUGAGAGAUUAACA | 0.614 ± 0.025
28 | UAGUGAGUCACCUUGUCUGAGAGAUAUUGA | 0.00169 ± 0.0063
29 | UAGACUGUCAGCUUCUCUGUGAGAUUAACA | 0.198 ± 0.0095
30 | UAGUGACAGUGCUUCUCUGUGAGAUUAAGA | 0.000459 ± 0.0097
31 | UAGUGACAGACCUUCUCCUGAGAGAUUAACA | 0.00149 ± 0.0075
32 | UACACUCAGACCUUCUCUGAGAGAUAUUGA | 0.00374 ± 0.0038
33 | AUCACUGUCACCUUGUCUGAGAGAUAAACA | 0.552 ± 0.085
34 | UAGUGACAGACCAAGUCUGAGAGAUUAACA | 0.000991 ± 0.0075
35 | UAGUGUGUCACCAACUCUGAGAGAUUUUGA | 0.00183 ± 0.0059
36 | UAGACUGUCACCUUGAGUGAGAGAUUAACA | 0.00286 ± 0.0032
37 | UAGUGACACUGCUUCUCUGAGAGAUUAUGA | 0.00142 ± 0.0051
38 | UAGUGACAGACCUUCUCUCUGAGAUUAAGA | 0.000402 ± 0.023
39 | UAGACUGUCACCUUCUCUGAGAGAUUAACA [g2:g27:cont:t1A] | 0.805 ± 0.05
40 | UAGUGACAGUCCUUCUGAGAGAGAUUAACA | 0.000681 ± 0.011
41 | UAGUGACUCACCUUCUCUGUGACAUUAACA | 0.0765 ± 0.0076
42 | UAGUGACUCACCUUCUCUGAGAGUUAUUGA | 0.00242 ± 0.004
43 | AUCACUGUCAGCUUCUCUGAGAGUUUAACA | 0.149 ± 0.018
44 | UAGUGACUCACCUUCUCACUGAGAUAUUGA | 0.000137 ± 0.06
45 | UAGUGACAGUGGAAGAGUGAGAGAUUUUCA | 0.000132 ± 0.066
46 | UAGUGACUCACCUUCUCAGAGAGAUUUUGA | 0.00144 ± 0.006
47 | AUCACUCUCACCUUCUCUGAGAGAUUAUGA | 0.049 ± 0.018
48 | UAGUGACAGUGGAACUCUGAGAGAUUAAGA | 0.00012 ± 0.038

Rewritten in CSV form: part of the list above
Row,Sequence,pre-steady-state target cleavage rate
26,UAGUGACAGUGGAUCUCUGACAGAUUAUCA,0.000181 ± 0.043
27,UACACUGUUCACCUUCUCUGAGAGAUUAACA,0.614 ± 0.025
28,UAGUGAGUCACCUUGUCUGAGAGAUAUUGA,0.00169 ± 0.0063
29,UAGACUGUCAGCUUCUCUGUGAGAUUAACA,0.198 ± 0.0095
30,UAGUGACAGUGCUUCUCUGUGAGAUUAAGA,0.000459 ± 0.0097
31,UAGUGACAGACCUUCUCCUGAGAGAUUAACA,0.00149 ± 0.0075
32,UACACUCAGACCUUCUCUGAGAGAUAUUGA,0.00374 ± 0.0038
33,AUCACUGUCACCUUGUCUGAGAGAUAAACA,0.552 ± 0.085
34,UAGUGACAGACCAAGUCUGAGAGAUUAACA,0.000991 ± 0.0075
35,UAGUGUGUCACCAACUCUGAGAGAUUUUGA,0.00183 ± 0.0059
36,UAGACUGUCACCUUGAGUGAGAGAUUAACA,0.00286 ± 0.0032
37,UAGUGACACUGCUUCUCUGAGAGAUUAUGA,0.00142 ± 0.0051
38,UAGUGACAGACCUUCUCUCUGAGAUUAAGA,0.000402 ± 0.023
39,UAGACUGUCACCUUCUCUGAGAGAUUAACA [g2:g27:cont:t1A],0.805 ± 0.05
40,UAGUGACAGUCCUUCUGAGAGAGAUUAACA,0.000681 ± 0.011

The listing continues:

Row | Sequence | pre-steady-state target cleavage rate
49 | UAGACUGUCAGCUUCUCUGAGAGAUUUUGA | 0.000881 ± 0.0084
50 | UAGUGAGUGUCCUUCUCUGAGAGAUAUUGA | 0.00104 ± 0.0066
51 | UAGUGACAGUGCUUCUAUGAGAGAUUAACA | 0.00203 ± 0.0046
52 | AUCACUGUCACCUUCUCUGAGUCUUAUUGA | 0.00266 ± 0.0045
53 | UAGUGACAGUCCUUCUCGAGAGAUUAACA | 0.00243 ± 0.0051
54 | UAGUGACAGUGGUUCUCUGUCUCUAAUUGA [g12:g18:cont:t1A] | 0.000193 ± 0.031
55 | UAGUGAGUCAGGAUCUCUGAGAGAUUAAGA | 0.00166 ± 0.0034
56 | UAGUGACAGUCCUUCUCUGAGAGUUUAAGA | 0.000782 ± 0.0088
57 | AUCAUCUGUCACCUUCUCUGAGAGAUUAACA | 0.74 ± 0.035
58 | UACACUGUCACCUUCUCUGAGAGAUUACCA | 0.152 ± 0.024
59 | UAGUGACACACCUUCUCUGACUGAUUAACA | 0.00283 ± 0.0037
60 | UAGUGAGUCAGCUUCUCUGAGAGAAUAACA | 0.199 ± 0.032
61 | UAGUCUGUCACCUUCUGACAGAGAUUAACA | 0.00156 ± 0.0078
62 | UAGUGACAGUGGAAGAGUGAGCAGAUUAACA | 0.0015 ± 0.0034
63 | AUCUCUGUCACCAUCUCUGAGAGAUUAACA | 0.633 ± 0.03
64 | UAGUGACAGUGCUUCAUCUGAGAGAUUAACA | 0.00237 ± 0.0035
65 | UAGUGACAGACCAUCUGUGAGAGAUUAACA | 0.00286 ± 0.0041
66 | UAGUGACAGUGGAAGAGUGCGAGAUUAACA | 0.00083 ± 0.01
67 | UAGUGUGUCACCUAGUCUGAGAGAUUUUGA | 0.000299 ± 0.029
68 | UACACUGUCACCUUCUCUGAGAGAUUAACG [g2:g28:cont:t1G] | 0.566 ± 0.047
69 | UUCACUGUCACCUUACUCUGAGAGAUUAACA | 0.522 ± 0.026
70 | UUCACUGUCACCUUCUCUGACUGAUUAAGA | 0.00224 ± 0.0032
71 | UAGUCUGUCACCUUCUCUGACUCAUUAUGA | 0.00102 ± 0.0053
